Results taken from patent EP4624492A1.

Legend:
[1] = target: cynomolgus CCR8 (cynomolgus monkey); experiment: flow cytometry on 293T-cynoCCR8 cells
[2] = target: cynomolgus CCR8 (cynomolgus monkey); experiment: flow cytometry, hybridoma supernatant on CHOK1-cynoCCR8 cells

| Binder | binding [1] | binding [2] |
| --- | --- | --- |
| 27B9-1G3 (antibody, V domains shown) VH: EIQLQQSGPELEKPGASVKISCKASGYSFTGYNMNWVKKSNGKSLEWIGNIDPYYGGTNYNQKFKGKATLTVDKSSSTAYMQLKSLTSEDSAVYYCARETWFITTGVIKKGFYFDYWGQGTTLTVSS VL: EIVLTQSPTTMAASPGEKITLACSASSIISSNYLHWYQQKPGFSPKLLIYRTSSLASGVPARFSGSGSGTSYSLTIGTMEAEDVATYYCQQGSSIPRTFGGGTKLEIK | binds | binds |
| 559E1B10 (antibody, V domains shown) VH: KVQLQQSGPVLVKPGASVKMSCKASGYTFTDYYVNWMKQNYGKSPEWIGVINPHNGDTRYNQKFKGKATLTVDKSSSTANMELTSLTSGDSAVYYCASWLRRGYYFDSWGQGTTLTVSS VL: DIVMTQSPATLSVTPGDRVSLSCRASQSISDYLHWYQQKSHESPRLLLKYVSQSISGIPSRFSGSGSGSDFTLTINSVEPEDVGVYYCQNGHSFPLTFGAGTKLELK | binds | binds |
| 563E10E12 (antibody, V domains shown) VH: EVQLIESGGGLVQPKGSLKLSCAASGFNFNAYAMNWVRQAPGKGLEWVARIRSKSNNFATYYADSVTDRFTISRDDSESMLYLQMNNLKTEDTAMYYCVRHGRRDLLYSMDFWGQGTSVTVSS VL: DVVMTQAAFSNPVTLGTSTSISCRSSKSLLHSNGITYLFWYLQKPGQSPQLLIYQMSNLASGVPDRFSGSGSGTDFTLRISRVEAEDVGVYYCAQSLELPLTFGGGTKLEIK | binds | binds |
| 569D11B5 (antibody, V domains shown) VH: EVQLIESGGGLVQPKGSLKLSCAASGFNFNAYAMNWVRQAPGKGLEWVARIRSKSNDFATYYADSVKGRFTISRDDSENMLFLQMNNLKTEDTAMYYCVRHGRRDLLYSMDFWGQGTSVTVSS VL: DIVMTQAAFSNPVTLGTSASISCRSSKSLLHSNGITYLFWYLQKPGQSPQLLIYQMSNLASGVPDRFSGSGSGTDFTLRISRVEAEDVGVYYCAQSLELPLTFGGGTKLEIK | binds | binds |
| 589D7C7 (antibody, V domains shown) VH: EVQLVESGGGLVQPKGSLKLSCAASGFNFNAYAMNWVRQAPGKGLEWVARIRSKSNNFATYYADSVKDRFTISRDDSESMVYLEMNNLKTEDTAMYYCVRHGRRDLLYSMDFWGQGTSVTVSS VL: DIVMTQAAFSNPVTLGTSASISCRSSKSLLHSNGITYLFWYLQKPGQSPQLLIYQMSNLASGVPDRFSGSGSGTDFTLRISRVEAEDVAVYYCAQSLELPLTFGGGTKLEIK | binds | binds |
| 27B9-1G3_hIgG1 (antibody, V domains shown) VH: EIQLQQSGPELEKPGASVKISCKASGYSFTGYNMNWVKKSNGKSLEWIGNIDPYYGGTNYNQKFKGKATLTVDKSSSTAYMQLKSLTSEDSAVYYCARETWFITTGVIKKGFYFDYWGQGTTLTVSS VL: EIVLTQSPTTMAASPGEKITLACSASSIISSNYLHWYQQKPGFSPKLLIYRTSSLASGVPARFSGSGSGTSYSLTIGTMEAEDVATYYCQQGSSIPRTFGGGTKLEIKR | binds |  |

Results are given in words; binding and its absence hold for the method and conditions named. Binding can be weak; no strength is given.
